# Data published in patent US6245968A, “Mutated hydroxyphenylpyruvate dioxygenase, DNA sequence and isolation of plants which contain such a gene and which are tolerant to herbicides” (Aventis CropScience S.A., priority 1997, dated 2001).
# For at least one compound, name, drawing or mass did not settle the structure.
# Assays:
# [1] = test system: Synechocystis PCC6803 HPPD variant SyN318 (Glycine318 replaced with asparagine); assay: HPPD activity by HPLC determination of homogentisate (Km, IC50); format: biochemical; conditions: SyN318 versus unmutated Synechocystis HPPD
# Experimental: Glycine318, replaced with asparagine, designated SyN318, similar to PfD334 (in Example 3).
# (§1) The mutants SyN318 and SyA318 which were obtained in the previous example were examined, in comparison with the unmutated HPPD of Synechocystis, for the biochemical characteristics Km and IC50 with regard to an HPPD inhibitor, i.e. 2-cyano-3-cyclopropyl-1-(2-methylsulphonyl-4-trifluoromethylphenyl)propane-1,3-dione. This analysis was carried out using the following protocol:
# (§2) The HPPD activity is measured by determining, by means of high performance liquid chromatography (HPLC), the quantity of product, i.e. homogentisate,which is formed after incubating the enzyme with its substrate HPP. Injecting different amounts of homogentisate, varying from 12 to 48 nmoles, into the column enables the retention time of the homogentisate to be determined and the peak area to be correlated with the quantity of product injected.
# (§3) The activity measurements are carried out in a final volume of […] containing: 12.6 mM ascorbate, […] iron (FeH8N2O8S2,6H2O) (previously prepared in 0.1 M tris-acetate buffer, pH6), […] of crude extract containing the HPPD, […] HPP and 0.1 M tris-acetate buffer, pH7.5. […] The quantity of homogentisate formed is then analysed by injecting […] of assay mixture into a Pico TagC18 column which is connected to the HPLC system. […]
# [2] = test system: Synechocystis PCC6803 HPPD variant SyA318 (Glycine318 replaced with alanine); assay: as above; format: biochemical; conditions: SyA318 versus unmutated Synechocystis HPPD
# Experimental: Glycine318, replaced with alanine, designated SyA318, similar to PfA334 (in Example 3).
# as §1, §2, §3
smiles,measurement,setting,value
O=C(O)C(=O)Cc1ccc(O)cc1 [4-hydroxyphenylpyruvate],ratio of the Km of a mutant HPPD to the Km of the non-mutant HPPD,[1],8
same,ratio of the Km of a mutant HPPD to the Km of the non-mutant HPPD,[2],5
